According to PMC8858635:
No constants are given. Whether binding was seen depends on the method and setting. Binding seen in cells or lysates may run through a third protein. Some entries that bind do so weakly or less than the wild type.

Protein sequences, listed by entry. Tags and fused reporters are not part of them. Residues count along the entry.
UniProt P35222: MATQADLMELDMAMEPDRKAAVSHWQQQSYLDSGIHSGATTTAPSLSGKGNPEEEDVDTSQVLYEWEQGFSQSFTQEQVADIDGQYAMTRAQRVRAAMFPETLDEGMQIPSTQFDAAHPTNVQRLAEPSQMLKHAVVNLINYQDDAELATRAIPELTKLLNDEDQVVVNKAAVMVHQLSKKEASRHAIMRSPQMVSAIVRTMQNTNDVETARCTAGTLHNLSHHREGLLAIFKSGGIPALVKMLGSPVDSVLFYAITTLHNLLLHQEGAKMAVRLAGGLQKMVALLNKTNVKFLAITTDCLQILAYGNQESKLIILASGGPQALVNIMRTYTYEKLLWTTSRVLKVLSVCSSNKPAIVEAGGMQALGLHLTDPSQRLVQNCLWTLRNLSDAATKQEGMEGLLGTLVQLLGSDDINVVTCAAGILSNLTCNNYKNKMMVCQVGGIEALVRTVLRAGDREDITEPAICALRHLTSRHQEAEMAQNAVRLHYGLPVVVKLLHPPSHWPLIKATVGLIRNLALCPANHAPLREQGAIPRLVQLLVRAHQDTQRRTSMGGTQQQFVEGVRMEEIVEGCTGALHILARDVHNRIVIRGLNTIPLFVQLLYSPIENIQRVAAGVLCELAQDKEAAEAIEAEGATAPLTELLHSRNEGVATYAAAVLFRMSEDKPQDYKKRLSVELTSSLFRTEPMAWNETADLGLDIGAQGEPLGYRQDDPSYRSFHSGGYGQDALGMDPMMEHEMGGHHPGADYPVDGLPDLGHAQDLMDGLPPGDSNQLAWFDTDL
UniProt Q9HB71, residues 44-228: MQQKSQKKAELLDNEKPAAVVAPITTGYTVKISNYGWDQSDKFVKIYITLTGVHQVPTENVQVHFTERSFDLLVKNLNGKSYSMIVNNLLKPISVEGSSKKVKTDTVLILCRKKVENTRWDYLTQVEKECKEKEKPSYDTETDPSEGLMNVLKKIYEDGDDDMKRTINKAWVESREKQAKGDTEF

Target: β-catenin (human (endogenous in MM cell lines ARP1 and CAG)) (UniProt P35222)
Experiment: co-IP; Pierce Direct Magnetic IP/Co-IP kit; MM cells expressing FLAG-tagged CACYBP isoform2; which partner was precipitated is not told

binding: binds
Substance: FLAG-tagged CACYBP isoform2 (calcyclin binding protein isoform2, NM_001007214.1) (from UniProt Q9HB71-3 1-185)
